These are yes or no findings as the source states them, for the method shown. In cells and extracts the contact can be indirect.
Target: HA-pVHL (UniProt P40337)
Test: co-IP; 293T cells transfected, harvested at 24 h; 500 µg of cell lysate, immunoprecipitation with HA antibody and protein A/G PLUS agarose at 4°C, immunoblotting

Amino acid sequences for entries named in this document (tags omitted). Residues count along the entry.
UniProt P40337: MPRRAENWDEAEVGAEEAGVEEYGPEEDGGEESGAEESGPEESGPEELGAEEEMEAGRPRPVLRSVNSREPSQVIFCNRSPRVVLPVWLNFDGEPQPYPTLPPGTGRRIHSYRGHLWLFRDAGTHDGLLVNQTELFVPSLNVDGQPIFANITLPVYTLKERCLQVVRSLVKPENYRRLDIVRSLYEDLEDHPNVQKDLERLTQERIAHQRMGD
UniProt P10909, residues 23-449: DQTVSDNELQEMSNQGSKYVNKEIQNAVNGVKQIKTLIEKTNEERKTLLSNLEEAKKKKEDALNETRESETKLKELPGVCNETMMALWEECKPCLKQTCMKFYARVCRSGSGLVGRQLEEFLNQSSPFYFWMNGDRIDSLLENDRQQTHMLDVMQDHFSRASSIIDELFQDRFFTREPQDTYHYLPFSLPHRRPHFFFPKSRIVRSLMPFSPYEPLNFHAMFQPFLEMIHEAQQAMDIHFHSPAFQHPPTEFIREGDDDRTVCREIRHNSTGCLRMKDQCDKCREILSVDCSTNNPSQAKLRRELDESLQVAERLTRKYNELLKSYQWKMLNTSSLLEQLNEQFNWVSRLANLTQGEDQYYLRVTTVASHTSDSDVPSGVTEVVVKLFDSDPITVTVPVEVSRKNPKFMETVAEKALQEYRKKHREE

Myc-sCLU (from UniProt P10909-1 23-449)
binding: no binding

— PMC3332038
